Data on one substance can be found in paper PMC12055972.

Chains of the proteins cited; added tags and fusions are not shown.
UniProt P51149: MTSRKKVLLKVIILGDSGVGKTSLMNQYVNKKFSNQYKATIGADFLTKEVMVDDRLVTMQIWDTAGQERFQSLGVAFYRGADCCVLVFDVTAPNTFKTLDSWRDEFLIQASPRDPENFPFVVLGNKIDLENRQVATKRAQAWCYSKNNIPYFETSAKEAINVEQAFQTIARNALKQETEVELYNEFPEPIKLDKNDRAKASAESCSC

This test addresses T1, vascular endothelial (VE)-cadherin (human (endogenous in HLMVECs)) (UniProt P33151).
T1 sequence: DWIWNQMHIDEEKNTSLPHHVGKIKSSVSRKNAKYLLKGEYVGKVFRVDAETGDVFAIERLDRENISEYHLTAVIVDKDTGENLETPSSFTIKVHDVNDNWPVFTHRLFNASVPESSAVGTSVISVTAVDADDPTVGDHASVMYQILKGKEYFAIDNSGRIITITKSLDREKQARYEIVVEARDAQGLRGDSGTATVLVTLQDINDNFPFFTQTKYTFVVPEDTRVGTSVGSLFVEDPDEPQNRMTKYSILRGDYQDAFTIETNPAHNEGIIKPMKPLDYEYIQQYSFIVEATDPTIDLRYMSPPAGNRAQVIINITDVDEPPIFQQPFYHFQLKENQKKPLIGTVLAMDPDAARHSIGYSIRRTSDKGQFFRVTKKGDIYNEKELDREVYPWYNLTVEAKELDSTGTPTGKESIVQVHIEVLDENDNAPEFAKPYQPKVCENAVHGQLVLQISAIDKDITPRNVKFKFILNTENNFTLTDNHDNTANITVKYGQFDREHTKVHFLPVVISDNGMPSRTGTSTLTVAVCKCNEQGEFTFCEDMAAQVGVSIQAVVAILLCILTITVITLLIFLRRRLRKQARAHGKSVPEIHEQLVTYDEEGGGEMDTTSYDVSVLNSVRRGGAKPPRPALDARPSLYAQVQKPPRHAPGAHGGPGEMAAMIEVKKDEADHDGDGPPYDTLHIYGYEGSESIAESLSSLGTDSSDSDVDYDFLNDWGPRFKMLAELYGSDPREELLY
Kind of test: co-IP; HLMVECs with or without cyclic stretch, lysed in IP-buffer; supernatant with protein A/G beads, the corresponding antibodies and homologous IgG overnight at 4 °C; five washes; western blot. A general note: A western blot detects proteins with antibodies after separation by electrophoresis.

Results are given in words; binding and its absence hold for the method and conditions named. Binding seen in cells or lysates may run through a third protein. Some binding calls cover weakened binding; strength is not graded here.

For the substance “Ras-related protein RAB7 (from UniProt P51149 1-207)”, the binding entry was “binds”.
